# Results taken from PubChem BioAssay AID2685 (National Center for Advancing Translational Sciences (NCATS), 2010).
# This is one part of the list. Further columns of the screen follow, without active or inactive calls. The list favours compounds with an active or inconclusive main result. Potencies come from curve fits of mixed quality, noted in brackets.
# Experiment: qHTS Assay for Lipid Storage Modulators in Drosophila S3 Cells;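 as to cell number change: cells counted by Cell Tracker Red CMTPX staining in the red channel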
# Details: BODIPY lipid droplet fluorescence, 18-24 h; for cell number change: measured here: cell count max response, cells fed with added oleic acid
# Summary of the method: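 Drosophila S3 cells loaded with oleic acid (400 uM, as added) and compounds at several concentrations; lipid droplets imaged by 488-nm laser-scanning cytometry, 500–530 nm intensity and object ratio to cell channel. Percent activity normalized to 20 uM Triacsin C.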
# [1] = measured here: lipid fluorescence (Fed channel) AC50, cells fed with added oleic acid
# [2] = measured here: cell number channel AC50, cells fed with added oleic acid
smiles,measurement,setting,value
C=CCn1c(SCc2c(F)cccc2Cl)nnc1-c1ccco1,cell number change,,1.27%
same,AC50,[1],"4.11 µM [rising, full curve]"
Cc1ccc(C(=O)OC2CCOC2=O)cc1NC(=O)c1ccco1 (stereo unspecified),cell number change,,3.44%
same,AC50,[1],"3.66 µM [rising, single point]"
CCOc1ccc(S(=O)(=O)N(CC)CC(=O)NCc2ccncc2)cc1C,cell number change,,21.8%
same,AC50,[1],"16.4 µM [rising, partial curve]"
Cc1ccnc(NC(=O)c2ccc(OCC3CCCO3)cc2)c1 (stereo unspecified),cell number change,,9.64%
CCC(C(=O)OC)n1cnc2c(oc3ccccc32)c1=O (stereo unspecified),cell number change,,-9.44%
same,AC50,[1],"6.51 µM [falling, single point]"
Cc1ccc(OCC(=O)OCC(=O)c2ccccc2)cc1C,cell number change,,15.7%
Cc1ccc(S(=O)(=O)NCCC(=O)N2CCCCCCC2)cc1,cell number change,,-18.7%
same,AC50,[1],"0.291 µM [falling, full curve, poor fit]"
Cc1cnc(NC(=O)c2cc3ccccc3o2)s1,cell number change,,32.6%
same,AC50,[2],"6.51 µM [rising, single point]"
same,AC50,[1],"6.51 µM [rising, single point]"
CCOC(=O)N1CCN(CC(=O)n2c(C)c(C)c3ccccc32)CC1,cell number change,,-3.62%
same,AC50,[1],"0.092 µM [falling, full curve, poor fit]"
Cc1ccc(OC(=O)N2CCOCC2)cc1,cell number change,,14.9%
same,AC50,[1],"0.0731 µM [rising, full curve, poor fit]"
Cc1ccc(N2C(=O)c3ccccc3C(C)(C)C2=O)cc1,cell number change,,5.25%
CCOc1ccc(Br)cc1S(=O)(=O)Nc1ccc(Cl)c(S(=O)(=O)N(CC)c2ccccc2)c1,cell number change,,-25.6%
same,AC50,[2],"0.461 µM [falling, full curve, poor fit]"
Cc1ccc(NC(=O)CNC2CCS(=O)(=O)C2)cc1C (stereo unspecified),AC50,[2],"6.51 µM [rising, single point]"
same,AC50,[1],"0.731 µM [falling, single point]"
CN1C(=O)c2ccccc2C(C(=O)NCCCN2CCCC2)C1c1c[nH]c2ccccc12 (stereo unspecified),cell number change,,5.8%
same,AC50,[1],"3.66 µM [falling, partial curve]"
O=C(NNC(=O)c1ccncc1)c1ccccc1,cell number change,,19.7%
same,AC50,[1],"25.9 µM [rising, single point]"
CC(C)(C)n1nnnc1C(c1cccs1)N1CCCc2ccccc21 (stereo unspecified),cell number change,,-33.7%
same,AC50,[2],"5.8 µM [falling, partial curve, poor fit]"
same,AC50,[1],"6.51 µM [falling, partial curve, poor fit]"
O=C(Nc1ccc2c(c1)OCO2)C1CCCN1C(=O)Nc1cccc(F)c1 (stereo unspecified),cell number change,,2.62%
CC(=O)Nc1ccc(NC(=O)COc2cc(O)c3c(c2)OC(C)(C)CC3=O)cc1,cell number change,,2.33%
COc1cccc(C(=O)NC2CCCN(C3Cc4ccccc4C3)C2)c1OC (stereo unspecified),AC50,[1],"0.13 µM [falling, full curve, poor fit]"
Cc1cccc(NC(=O)C2CCCN(S(=O)(=O)c3cccs3)C2)c1C (stereo unspecified),cell number change,,-2.25%
same,AC50,[1],"29.1 µM [rising, single point]"
COCCNC(=O)c1nn2c(C(F)(F)F)cc(-c3ccccc3)nc2c1Cl,cell number change,,43.2%
same,AC50,[2],"32.6 µM [rising, partial curve, poor fit]"
same,AC50,[1],"29.1 µM [rising, single point]"
COc1ccc(CN2CCSCC2)c(OC)c1C,AC50,[1],"0.206 µM [rising, full curve, poor fit]"
O=C(NCC1CCCCC1)c1cccc(S(=O)(=O)NCc2cccnc2)c1,AC50,[2],"0.00517 µM [rising, full curve, poor fit]"
Cn1cccc1C(=O)NC1CCCCCC1,cell number change,,-6.64%
same,AC50,[1],"3.26 µM [rising, partial curve]"
Cc1c(Cl)cccc1NC(=S)NCCC(c1ccccc1)c1ccccc1,cell number change,,-11.9%
same,AC50,[1],"32.6 µM [falling, partial curve]"
COc1ccc(C(=O)Cc2cc3ccccc3oc2=O)cc1,AC50,[1],"3.66 µM [rising, full curve]"
CC1(C)C(=O)Nc2ccccc2N1C(=O)COC(=O)C12CC3CC(CC(O)(C3)C1)C2,cell number change,,-13.3%
same,AC50,[2],"6.51 µM [falling, single point]"
COc1ccc(C(=O)Nc2ccc3oc(-c4cccc(F)c4)nc3c2)cc1OC,cell number change,,6.51%
same,AC50,[1],"6.51 µM [rising, partial curve]"
C=CCSc1nc2c(cnn2-c2ccc(C)c(C)c2)c(=O)[nH]1,cell number change,,-15.9%
same,AC50,[1],"20.6 µM [falling, single point]"
Cc1nnc(N/N=C/c2ccc(-c3ccc(Br)cc3)o2)n1N,cell number change,,26.8%
same,AC50,[2],"2.31 µM [rising, partial curve, poor fit]"
CCc1nonc1NC(=O)c1oc2ccc(Br)cc2c1C,cell number change,,-16.2%
COc1ccc(C(=O)OCC(=O)Nc2cc(S(=O)(=O)N3CCOCC3)ccc2N2CCCC2)cc1,AC50,[1],"5.8 µM [falling, single point]"
COc1ccc(Cn2c(=S)[nH]c3ccccc32)cc1,cell number change,,-7.87%
same,AC50,[1],"0.231 µM [rising, partial curve]"
Nc1nc(CN2CCN(c3ccccn3)CC2)nc(Nc2ccc(F)cc2)n1,cell number change,,19.6%
O=C(Nc1ccc(N2CCOCC2)cc1)C1(c2ccc(Cl)cc2)CCC1,AC50,[2],"3.66 µM [rising, partial curve, poor fit]"
same,AC50,[1],"5.8 µM [rising, partial curve, poor fit]"
Cc1cc(OCCCC(=O)Nc2cccc(-n3cnnn3)c2)ccc1Cl,AC50,[1],"5.17 µM [falling, single point]"
CCN(c1ccccc1)S(=O)(=O)c1ccc(F)cc1C,cell number change,,-74.1%
same,AC50,[2],"10.3 µM [falling, partial curve]"
same,AC50,[1],"6.51 µM [falling, single point]"
COC(=O)CNC(=O)COC(=O)/C=C/c1ccccc1[N+](=O)[O-],AC50,[2],"0.651 µM [falling, single point]"
Cc1ccc2c(c1)c1c(n2CC(O)CNC(C)(C)C)CCCC1 (stereo unspecified),cell number change,,16.1%
CCC(C)Nc1nc(N)c([N+](=O)[O-])c(N2CCCCCC2)n1 (stereo unspecified),cell number change,,-25.3%
same,AC50,[1],"29.1 µM [falling, single point]"
COCCn1c(SCC(=O)NC(=O)NC(C)C)nc2ccccc21,cell number change,,-21.9%
same,AC50,[2],"0.164 µM [falling, full curve, poor fit]"

# Random excerpt: 2 entries already listed, in no set order.
smiles,measurement,setting,value
COc1ccc(C(=O)Nc2ccc3oc(-c4cccc(F)c4)nc3c2)cc1OC,AC50,[1],"6.51 µM [rising, partial curve]"
C=CCSc1nc2c(cnn2-c2ccc(C)c(C)c2)c(=O)[nH]1,AC50,[1],"20.6 µM [falling, single point]"

# Given tab-delimited: part of the list above
smiles	measurement	setting	value
CC(C)(C)n1nnnc1C(c1cccs1)N1CCCc2ccccc21 (stereo unspecified)	cell number change		-33.7%
same	AC50	[2]	5.8 µM [falling, partial curve, poor fit]
